Results on 1 substance are retold here after article PMC5078065.

Sequences of proteins named here, by UniProt entry; tags and fusion partners are left off.
UniProt P07355: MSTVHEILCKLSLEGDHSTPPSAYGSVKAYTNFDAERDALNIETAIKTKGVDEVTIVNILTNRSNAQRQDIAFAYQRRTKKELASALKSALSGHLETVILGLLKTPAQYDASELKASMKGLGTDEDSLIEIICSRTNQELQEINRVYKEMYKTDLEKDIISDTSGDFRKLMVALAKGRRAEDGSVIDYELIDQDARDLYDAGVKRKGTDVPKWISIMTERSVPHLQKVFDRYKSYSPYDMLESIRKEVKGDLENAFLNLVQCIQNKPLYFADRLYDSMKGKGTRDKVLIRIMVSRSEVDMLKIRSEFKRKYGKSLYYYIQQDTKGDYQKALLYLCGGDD

In the assay the target is T1, ubiquitin associated protein 2 (human) (UniProt Q5T6F2).
T1 sequence: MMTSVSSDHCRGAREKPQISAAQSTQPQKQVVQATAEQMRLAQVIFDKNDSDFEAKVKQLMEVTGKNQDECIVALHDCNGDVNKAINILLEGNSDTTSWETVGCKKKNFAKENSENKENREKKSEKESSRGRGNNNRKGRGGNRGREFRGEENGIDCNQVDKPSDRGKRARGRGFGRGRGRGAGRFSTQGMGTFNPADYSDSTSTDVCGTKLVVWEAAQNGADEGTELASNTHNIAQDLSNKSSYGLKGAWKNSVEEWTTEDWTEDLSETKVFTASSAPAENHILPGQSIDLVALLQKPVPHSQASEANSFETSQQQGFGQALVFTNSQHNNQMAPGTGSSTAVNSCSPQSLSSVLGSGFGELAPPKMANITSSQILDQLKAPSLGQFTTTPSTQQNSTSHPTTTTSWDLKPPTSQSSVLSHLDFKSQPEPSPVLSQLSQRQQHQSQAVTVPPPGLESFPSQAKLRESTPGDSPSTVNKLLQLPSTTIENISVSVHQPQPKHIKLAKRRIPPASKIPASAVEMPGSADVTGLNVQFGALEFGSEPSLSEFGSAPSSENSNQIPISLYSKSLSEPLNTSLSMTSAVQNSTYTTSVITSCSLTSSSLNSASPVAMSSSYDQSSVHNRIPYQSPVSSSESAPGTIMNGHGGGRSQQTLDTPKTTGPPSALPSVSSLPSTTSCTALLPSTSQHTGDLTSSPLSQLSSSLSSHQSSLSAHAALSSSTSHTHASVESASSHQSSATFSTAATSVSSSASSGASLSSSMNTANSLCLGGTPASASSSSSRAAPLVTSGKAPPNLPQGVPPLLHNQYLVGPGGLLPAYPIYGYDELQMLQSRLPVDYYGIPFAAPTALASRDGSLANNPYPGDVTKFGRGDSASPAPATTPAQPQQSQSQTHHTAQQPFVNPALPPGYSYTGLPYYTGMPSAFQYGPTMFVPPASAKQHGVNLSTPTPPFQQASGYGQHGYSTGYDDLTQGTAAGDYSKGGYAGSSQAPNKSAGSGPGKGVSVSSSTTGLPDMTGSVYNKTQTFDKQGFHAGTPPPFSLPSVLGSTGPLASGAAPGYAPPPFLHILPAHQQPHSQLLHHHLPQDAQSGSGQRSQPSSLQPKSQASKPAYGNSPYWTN
As to the kind of experiment: co-IP; reciprocal co-IP in PLC/PRF/5 cells, western blot.

No constants are given. Whether binding was seen depends on the method and setting. Binding seen in cells or lysates may run through a third protein. Some binding calls cover weakened binding; strength is not graded here.

In the case of Annexin A2 (from UniProt P07355 1-339), the binding entry is listed as “binds”.
